Results published in paper PMC9993039 (Royal Society Open Science, 2023).

Test: general procedure: Fmoc solid-phase peptide synthesis; 2-chlorotrityl chloride resin (1.5 mmol g^-1 loading capacity); HBTU/DIPEA
Settings: whole synthesis
[1] = scale of the general procedure 0.10 mmol

| Substance | isolated mass (scale 0.10 mmol) [mg] | isolated yield (scale 0.10 mmol) [%] | final purity (method not given) [1] | isolated mass [mg] | isolated yield [1] [%] |
| --- | --- | --- | --- | --- | --- |
| EuK(2-Nal-Trx-Lys[Gly-Tyr-Lys(DOTA)]-Glu-4-p-IPBA) | 19 | 10 | greater than 95% |  |  |
| EuK(2-Nal-Trx-Lys[Met-Val-Lys(DOTA)]-Glu-4-p-IPBA) |  |  | greater than 95% | 12 | 5.8 |
